Reference: publication PMC4868757, “PDIP46 (DNA polymerase δ interacting protein 46) is an activating factor for human DNA polymerase δ” (Oncotarget, 2016)
Results are given in words; binding and its absence hold for the method and conditions named. For part of these data: In cells and extracts the contact can be indirect. Some results given as binding are weak or reduced against the parent protein; the word gives no strength. Each block holds one molecule with its values, some of them ahead of it.

Chains of the proteins cited; added tags and fusions are not shown. Lines headed by an entry give the natural chain unless they say otherwise; changes in a name come on top.
UniProt P28340: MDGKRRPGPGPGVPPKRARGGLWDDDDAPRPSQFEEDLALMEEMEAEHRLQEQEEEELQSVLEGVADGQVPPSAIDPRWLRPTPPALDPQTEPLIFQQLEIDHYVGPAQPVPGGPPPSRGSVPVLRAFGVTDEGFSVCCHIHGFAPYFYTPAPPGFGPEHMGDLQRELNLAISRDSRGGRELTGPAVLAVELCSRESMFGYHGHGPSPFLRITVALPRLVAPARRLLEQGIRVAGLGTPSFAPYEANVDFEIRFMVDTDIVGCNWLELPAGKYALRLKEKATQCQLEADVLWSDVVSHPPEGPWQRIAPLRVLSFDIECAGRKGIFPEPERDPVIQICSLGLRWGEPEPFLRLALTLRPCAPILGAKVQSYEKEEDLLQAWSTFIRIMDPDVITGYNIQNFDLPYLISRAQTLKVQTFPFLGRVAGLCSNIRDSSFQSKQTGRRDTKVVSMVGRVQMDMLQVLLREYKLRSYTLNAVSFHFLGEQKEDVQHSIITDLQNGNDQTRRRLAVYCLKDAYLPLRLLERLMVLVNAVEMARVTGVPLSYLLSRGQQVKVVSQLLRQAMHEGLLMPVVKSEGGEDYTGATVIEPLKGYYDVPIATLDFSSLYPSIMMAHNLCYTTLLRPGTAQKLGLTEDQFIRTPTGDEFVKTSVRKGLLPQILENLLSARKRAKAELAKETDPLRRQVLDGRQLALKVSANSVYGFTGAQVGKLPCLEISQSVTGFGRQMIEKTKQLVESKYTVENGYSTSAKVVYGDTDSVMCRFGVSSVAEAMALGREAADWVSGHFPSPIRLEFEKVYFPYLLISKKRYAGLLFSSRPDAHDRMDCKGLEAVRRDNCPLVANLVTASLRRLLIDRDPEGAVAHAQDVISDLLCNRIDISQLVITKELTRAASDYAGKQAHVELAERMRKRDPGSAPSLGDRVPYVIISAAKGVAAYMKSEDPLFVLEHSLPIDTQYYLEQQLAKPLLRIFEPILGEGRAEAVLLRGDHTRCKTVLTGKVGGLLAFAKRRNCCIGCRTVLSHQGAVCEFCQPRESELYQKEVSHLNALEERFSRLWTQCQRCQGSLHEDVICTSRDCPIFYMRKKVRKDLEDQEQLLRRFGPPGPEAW
UniProt P49005: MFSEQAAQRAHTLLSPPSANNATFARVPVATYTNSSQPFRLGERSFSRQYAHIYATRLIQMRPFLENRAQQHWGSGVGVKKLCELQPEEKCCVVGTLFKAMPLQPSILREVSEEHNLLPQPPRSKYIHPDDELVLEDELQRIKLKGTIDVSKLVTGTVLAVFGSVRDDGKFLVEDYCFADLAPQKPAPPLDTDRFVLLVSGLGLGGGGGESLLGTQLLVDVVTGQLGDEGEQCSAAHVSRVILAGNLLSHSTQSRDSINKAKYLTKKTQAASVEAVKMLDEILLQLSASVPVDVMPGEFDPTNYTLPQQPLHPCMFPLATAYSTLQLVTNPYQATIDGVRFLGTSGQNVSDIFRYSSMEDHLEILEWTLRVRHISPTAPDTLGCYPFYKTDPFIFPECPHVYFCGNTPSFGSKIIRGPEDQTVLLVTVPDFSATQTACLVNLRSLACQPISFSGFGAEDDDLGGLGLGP

Tests used:
[1] = target: T1, PDIP46, endogenous in cultured human cells (human (endogenous in HeLa, HEK 293, A549)) (UniProt Q9BY77); test: co-IP; HeLa cell extracts immunoprecipitated with polyclonal antibodies against PDIP46, A/G agarose beads, washed with RIPA buffer; western blot for p50 and p125
T1 sequence: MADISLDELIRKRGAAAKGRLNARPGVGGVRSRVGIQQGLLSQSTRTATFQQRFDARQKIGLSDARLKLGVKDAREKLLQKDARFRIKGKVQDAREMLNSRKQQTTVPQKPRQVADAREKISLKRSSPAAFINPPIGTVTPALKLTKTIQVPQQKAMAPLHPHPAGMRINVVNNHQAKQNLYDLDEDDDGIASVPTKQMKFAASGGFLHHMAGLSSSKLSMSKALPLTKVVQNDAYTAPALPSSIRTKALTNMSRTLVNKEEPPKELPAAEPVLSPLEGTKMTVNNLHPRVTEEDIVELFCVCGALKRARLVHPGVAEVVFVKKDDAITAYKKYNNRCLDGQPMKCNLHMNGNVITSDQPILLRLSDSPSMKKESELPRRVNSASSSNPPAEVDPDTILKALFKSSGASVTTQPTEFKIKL

[2] = target: p125 subunit of Pol δ, endogenous in cultured human cells (human (endogenous in HeLa, HEK 293, A549)) (UniProt P28340); test: SEC; nuclear extracts of HEK 293 cells on a Superose 6 FPLC column; fractions western blotted for p125 and PDIP46
[3] = target: p125 subunit of Pol δ, endogenous in cultured human cells (human (endogenous in HeLa, HEK 293, A549)) (UniProt P28340); test: co-IP; immunoaffinity chromatography of HeLa cell lysates on immobilized p125 antibody; fractions blotted (Figure S1)
[4] = target: p125 subunit of Pol δ, endogenous in cultured human cells (human (endogenous in HeLa, HEK 293, A549)) (UniProt P28340); test: co-IP; ChIP: cells cross-linked with 1% formaldehyde, chromatin immunoprecipitated with anti-p125 or control IgG (ChIP-IT Express Enzymatic Kit); western blot for PDIP46 and p125
[5] = target: p125 subunit of Pol δ, endogenous in cultured human cells (human (endogenous in HeLa, HEK 293, A549)) (UniProt P28340); test: native gel or EMSA; HEK 293 cell lysates on 5-15% nondenaturing gradient gels at 4°C run to limiting mobility (18 h); western blot for p125 and PDIP46

- binding [1]: binds
Molecule: p50 subunit of Pol δ, endogenous in HeLa cells (from UniProt P49005 1-469)

- binding [1]: binds
Molecule: p125 subunit of Pol δ, endogenous in cultured human cells (from UniProt P28340 1-1107)

- binding [2]: binds
- binding [3]: binds
- binding [4]: binds
- binding [5]: binds
B1: GST-PDIP46 (DNA polymerase δ interacting protein 46), wild type, full length (natural protein, human, UniProt Q9BY77 1-421, looked up)
chain: T1 sequence
notes: PDIP46 (SKAR, POLDIP3), human, full-length; Subcloned in pGEX-5X-3; The functional rows used untagged PDIP46 (his-Sumo fusion, tags removed by Sumo protease, Mono S), not this GST fusion; also called GST-p46; SKAR; source: E. coli BL21DE3 (pLysS), purified (glutathione beads)
